This is an account of results in PMC7486383, “Protrudin and PDZD8 contribute to neuronal integrity by promoting lipid extraction required for endosome maturation” (Nature Communications, 2020).

Protein sequences, listed by entry. Tags and fused reporters are not part of them.
UniProt Q9QY76: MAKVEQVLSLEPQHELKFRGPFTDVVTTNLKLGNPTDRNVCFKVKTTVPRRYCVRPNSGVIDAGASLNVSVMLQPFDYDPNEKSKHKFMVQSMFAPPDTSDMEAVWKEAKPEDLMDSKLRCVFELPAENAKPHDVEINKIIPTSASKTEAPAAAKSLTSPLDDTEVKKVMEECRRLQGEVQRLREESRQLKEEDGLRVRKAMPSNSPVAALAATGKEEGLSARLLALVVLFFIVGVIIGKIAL

Assay [1] deals with T1, His6-FLAG-tagged mouse protrudin (mouse) (UniProt Q3TXX3).
T1 sequence: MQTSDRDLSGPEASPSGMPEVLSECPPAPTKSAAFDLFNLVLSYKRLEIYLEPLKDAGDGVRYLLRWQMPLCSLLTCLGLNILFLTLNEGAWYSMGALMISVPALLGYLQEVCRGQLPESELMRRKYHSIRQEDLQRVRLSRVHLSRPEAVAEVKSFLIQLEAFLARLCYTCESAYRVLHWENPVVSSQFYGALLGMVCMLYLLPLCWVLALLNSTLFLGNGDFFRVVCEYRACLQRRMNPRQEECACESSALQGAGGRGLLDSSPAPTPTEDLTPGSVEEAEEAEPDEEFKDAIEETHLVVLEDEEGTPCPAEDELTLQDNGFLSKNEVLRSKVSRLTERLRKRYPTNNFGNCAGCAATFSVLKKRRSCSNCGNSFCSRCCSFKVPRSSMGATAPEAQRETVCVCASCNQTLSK
Put plainly: affinity purification with mass spectrometry; dual affinity purification (anti-FLAG M2 agarose, FLAG peptide elution, then Ni-NTA agarose, imidazole elution) of His6-FLAG-protrudin from the membrane fraction of Neuro2A cells; SDS-PAGE, in-gel trypsin digestion, LC-MS/MS, MASCOT.

For assay [2], the target named is T2, endogenous protrudin of mouse brain (mouse (endogenous in mouse brain)) (UniProt Q3TXX3).
T2 sequence: T1 sequence
Put plainly: affinity purification with mass spectrometry; immunoprecipitation from the membrane fraction of mouse brain with mouse monoclonal antibodies to protrudin; LC-MS/MS; peptides identified in protrudin knockout mice subtracted; two independent experiments.

These are yes or no findings as the source states them, for the method shown. In cells and extracts the contact can be indirect. Here binding means that the protein was enriched with, or labelled near, the bait; the list need not be complete. For some of these results: Where a sequence is shown, tags or fusion partners need not be part of it.

Turning to “VAP-B (vesicle-associated membrane protein-associated protein B), endogenous in Neuro2A cells (from UniProt Q9QY76 1-243)”, in assay [1], the binding result is reported as “binds”.

B1: VAP-A (vesicle-associated membrane protein-associated protein A), endogenous in Neuro2A cells (protein, UniProt Q9WV55 1-249)
chain: MASASGAMAKHEQILVLDPPSDLKFKGPFTDVVTTNLKLQNPSDRKVCFKVKTTAPRRYCVRPNSGIIDPGSIVTVSVMLQPFDYDPNEKSKHKFMVQTIFAPPNISDMEAVWKEAKPDELMDSKLRCVFEMPNENDKLNDMEPSKAVPLNASKQDGPLPKPHSVSLNDTETRKLMEECKRLQGEMMKLSEENRHLRDEGLRLRKVAHSDKPGSTSAVSFRDNVTSPLPSLLVVIAAIFIGFFLGKFIL
As for B1, in assay [1], the binding entry is “binds”.

B2: PDZD8 (PDZ domain-containing 8), endogenous in Neuro2A cells (protein, UniProt B9EJ80 1-1147)
chain: MGLLLLILASAVLGSFLTLLAQFLLLYRRQPEPRADEAARAGDGFRYLKPVPGLPLREYLYGGGAEELAACSSEAGASSTPTPDSPAPPTLETCYFLNATILFLFRELRDTALARRWVTKKIKVEFEELLQTKTAGRLLEGLSLRDVFLGDTVPFIKTIRLVRPVVASGTGEPDDPDGDALPATCPEELAFEAEVEYNGGFHLAIDVDLVFGKSAYLFVKLSRVVGRLRFVLTRVPFTHWFFSFVEDPLIDFEVRSQFEGRPMPQLTSIIVNQLKKIIKRKHTLPSYKIRFKPFFPYQALQGFEEDEELIHIQQWALTEGRLKVTLLECSRLFIFGSYDRETNVHCTLELSSGVWEEKQRSSIKTVELIKGNLQSVGLTLRLVQSTDGYAGHVIIETVAPNSPAAMADLQRGDRLIAIGGVKITSTLQVLKLIKQAGDRVLVYYQRPAGQSSQDSLGQLEESFLSSSCQAAYEEDAAGLSADTENRDLDSEFEDLASDVRVQTELKEETQPLSHSPKRTPTTLSIKPLGAISPVLNRKLISGIHPPPQKLPSKEGNKPSTLKTSETTEAAQVSKPQGPTFKPPVPPRPQGRVPLPPTDTSAQADPEAPEKPDKVLLPPPPADKPAEKQVKSVDQGEDVAAGKQSSAKQEGVKDLPSESSAPTKDSSDDPQMWESSEVLYRNKVGKWSRTRASCVFDIEACHRYLNIALWCRDPFKLGGLICLGHVSLKLEEVALGCLATSNMEYLTKFRLEPPTPKAMVTRTALRNLSMQKGFNDKFCFGDITIHFKYLKEGEPDHHIVPNVEKEKELHLVEEVSTLPKEEHFVGQMSLSENKHSFQDTQFQNPTWCDYCKKKVWTKAASQCMFCAYVCHKKCQEKCLAETPLCGATERRIDRTLKNLRLEGQDPLLGLPPRVEIEANKSVNKTTGLTRHIINTSSRLLNLRQVSKTRLSEPGTDLVEPSPKHTPNTSDNEGSDTEVCGSNSPSKRGNSAGIKLMRKEGGLDDSVFIAVKEIGRDLYRGLPTEERIQKLEFMLDKLQNEIDQELEHNNSLVREEKETNDTRKKSVLSAALAKSGERLQALTLLMIHYRAGIEDIETLENLSLDQHSKKMNKYADDTEEDLDSEISQLIDSQPFSNISDDLFGPSESV
B2: the binding entry in assay [1] was “binds”.

B3: endogenous PDZD8 of mouse brain (protein, UniProt B9EJ80 1-1147)
chain: B2 chain
Regarding B3, the binding result in assay [2] was “binds”.
